According to US8486372B2 (Siemens Medical Solutions USA, Inc., priority 2007, dated 2013):

Experiment: general procedure: solution-phase peptide synthesis; EDC/N-hydroxysuccinimide; HATU/HOBt/2,4,6-collidine for cyclisation
Details: TFA; for step yield: late stage modification step

Substance	step yield [%]	also measured
2-((5S,8S,14S)-2-benzyl-5-(1-(4-(3-fluoropropyl)-1H-1,2,3-triazol-1-yl)-2,18-dioxo-6,9,12,15-tetraoxa-3,19-diazatricosan-23-yl)-8-(3-guanidinopropyl)-3,6,9,12,15-pentaoxo-1,2,4,7,10,13-hexaazacyclopentadecan-14-yl)acetic acid	38	–
2-((5S,8S,14S)-2-benzyl-5-(4-(2-(4-(3-fluoropropyl)-1H-1,2,3-triazol-1-yl)acetamido)butyl)-8-(3-guanidinopropyl)-3,6,9,12,15-pentaoxo-1,2,4,7,10,13-hexaazacyclopentadecan-14-yl)acetic acid	45	–
2-((5S,8S,14S)-5-(1-azido-2,18-dioxo-6,9,12,15-tetraoxa-3,19-diazatricosan-23-yl)-2-benzyl-8-(3-guanidinopropyl)-3,6,9,12,15-pentaoxo-1,2,4,7,10,13-hexaazacyclopentadecan-14-yl)acetic acid	–	conjugation yield (conjugation step): 7.5%
2-((5S,8S,14S)-5-(4-(2-azidoacetamido)butyl)-2-benzyl-8-(3-guanidinopropyl)-3,6,9,12,15-pentaoxo-1,2,4,7,10,13-hexaazacyclopentadecan-14-yl)acetic acid	19	–
2-((5S,8S,14S)-5-(4-aminobutyl)-2-benzyl-8-(3-guanidinopropyl)-3,6,9,12,15-pentaoxo-1,2,4,7,10,13-hexaazacyclopentadecan-14-yl)acetic acid	40	–
(5S,8S,14S)-2-amino-5-(3-(tert-butoxycarbonylamino)propyl)-18,18-dimethyl-3,6,9,12,16-pentaoxo-8-(3-(3-(2,2,4,6,7-pentamethyl-2,3-dihydrobenzofuran-5-ylsulfonyl)guanidino)propyl)-1-phenyl-17-oxa-2,4,7,10,13-pentaazanonadecane-14-carboxylic acid	99.8	–
tert-butyl 2-((5S,8S,14S)-2-benzyl-5-(4-(tert-butoxycarbonylamino)butyl)-3,6,9,12,15-pentaoxo-8-(3-(3-(2,2,4,6,7-pentamethyl-2,3-dihydrobenzofuran-5-ylsulfonyl)guanidino)propyl)-1,2,4,7,10,13-hexaazacyclopentadecan-14-yl)acetate	–	cyclisation yield (cyclisation step): 99%
